Experimental data: the supplement of paper PMC7661543
± gives the standard deviation of the averaged measurements. Differences between knockout arms are mostly noise.

Tested on: SKBR3
Experiment: relative cell number vs DMSO control (72 h) (% of DMSO); higher = less growth inhibition (more cells)
Procedure: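 QMAP-Seq: a pool of 5 breast cancer cell lines (ZR-75-1, SKBR3, HCC-38, MDA-MB-231, BT-20), each carrying 12 doxycycline-inducible Cas9 sgRNA perturbations (11 knockouts plus non-targeting sgNT), was treated with compounds for 72 h at four 10-fold doses (10 nM-10 uM or 1 nM-1 uM range). Barcodes were amplified and sequenced, and cell number was interpolated from 293T spike-in standard curves. The result is expressed as % of the median of DMSO wells. Two biological replicates.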

[1] = sgRNA knockout: sgATF3, 1000 nM
[2] = sgRNA knockout: sgATF4, 1000 nM
[3] = sgRNA knockout: sgATF6, 1000 nM
[4] = sgRNA knockout: sgATG7, 1000 nM
[5] = sgRNA knockout: sgERN1, 1000 nM
[6] = sgRNA knockout: sgHSF1, 1000 nM
[7] = sgRNA knockout: sgHSF2, 1000 nM
[8] = sgRNA knockout: sgKEAP1, 100 nM
[9] = sgRNA knockout: sgKEAP1, 1000 nM
[10] = sgRNA knockout: sgNFE2L2, 10 nM
[11] = sgRNA knockout: sgNFE2L2, 100 nM
[12] = sgRNA knockout: sgNFE2L2, 1000 nM
[13] = sgRNA knockout: sgSLC35F2, 10 nM
[14] = sgRNA knockout: sgSLC35F2, 100 nM
[15] = sgRNA knockout: sgSLC35F2, 1000 nM
[16] = sgRNA knockout: sgXBP1, 1000 nM
[17] = sgRNA knockout: sgATF3, 10000 nM
[18] = sgRNA knockout: sgATF4, 10000 nM
[19] = sgRNA knockout: sgATF6, 10000 nM
[20] = sgRNA knockout: sgATG7, 10000 nM
[21] = sgRNA knockout: sgERN1, 10000 nM
[22] = sgRNA knockout: sgHSF1, 10000 nM
[23] = sgRNA knockout: sgHSF2, 10000 nM
[24] = sgRNA knockout: sgKEAP1, 10000 nM
[25] = sgRNA knockout: sgNFE2L2, 10000 nM
[26] = sgRNA knockout: sgSLC35F2, 10000 nM
[27] = sgRNA knockout: sgXBP1, 10000 nM

## CO[C@H]1C[C@@H]2CC[C@@H](C)[C@@](O)(O2)C(=O)C(=O)N2CCCC[C@H]2C(=O)O[C@H]([C@H](C)C[C@@H]2CC[C@@H](OCCO)[C@H](OC)C2)CC(=O)[C@H](C)/C=C(\C)[C@@H](O)[C@@H](OC)C(=O)[C@H](C)C[C@H](C)/C=C/C=C/C=C/1C [Everolimus]
sgRNA knockout: sgATF3, 1 nM
  relative cell number: 82.3 ± 15
sgRNA knockout: sgATF3, 10 nM
  relative cell number: 59.7 ± 19
sgRNA knockout: sgATF3, 100 nM
  relative cell number: 61.4 ± 8.3
[1]
  relative cell number: 62.4 ± 5.9
sgRNA knockout: sgATF4, 1 nM
  relative cell number: 79.6 ± 11
sgRNA knockout: sgATF4, 10 nM
  relative cell number: 68.5 ± 2.6
sgRNA knockout: sgATF4, 100 nM
  relative cell number: 62.3 ± 3
[2]
  relative cell number: 65.4 ± 10
sgRNA knockout: sgATF6, 1 nM
  relative cell number: 65.5 ± 11
sgRNA knockout: sgATF6, 10 nM
  relative cell number: 81.2 ± 26
sgRNA knockout: sgATF6, 100 nM
  relative cell number: 65.91 ± 0.57
[3]
  relative cell number: 73.5 ± 0.76
sgRNA knockout: sgATG7, 1 nM
  relative cell number: 70.7 ± 6
sgRNA knockout: sgATG7, 10 nM
  relative cell number: 61.26 ± 0.41
sgRNA knockout: sgATG7, 100 nM
  relative cell number: 59.7 ± 2
[4]
  relative cell number: 71 ± 5.8
sgRNA knockout: sgERN1, 1 nM
  relative cell number: 63.7 ± 21
sgRNA knockout: sgERN1, 10 nM
  relative cell number: 68.5 ± 25
sgRNA knockout: sgERN1, 100 nM
  relative cell number: 80.4 ± 19
[5]
  relative cell number: 64 ± 23
sgRNA knockout: sgHSF1, 1 nM
  relative cell number: 72.22 ± 0.27
sgRNA knockout: sgHSF1, 10 nM
  relative cell number: 68.4 ± 6.1
sgRNA knockout: sgHSF1, 100 nM
  relative cell number: 70 ± 17
[6]
  relative cell number: 58.6 ± 10
sgRNA knockout: sgHSF2, 1 nM
  relative cell number: 65.3 ± 2.7
sgRNA knockout: sgHSF2, 10 nM
  relative cell number: 73.4 ± 7.3
sgRNA knockout: sgHSF2, 100 nM
  relative cell number: 56.9 ± 7.4
[7]
  relative cell number: 65.3 ± 13
sgRNA knockout: sgKEAP1, 1 nM
  relative cell number: 68.8 ± 16
sgRNA knockout: sgKEAP1, 10 nM
  relative cell number: 56 ± 3.8
[8]
  relative cell number: 59.8 ± 1.6
[9]
  relative cell number: 66.5 ± 7.5
sgRNA knockout: sgNFE2L2, 1 nM
  relative cell number: 58.9 ± 6.1
[10]
  relative cell number: 47.7 ± 18
[11]
  relative cell number: 71 ± 13
[12]
  relative cell number: 75 ± 8.8
sgRNA knockout: sgSLC35F2, 1 nM
  relative cell number: 71.5 ± 1.5
[13]
  relative cell number: 66.9 ± 14
[14]
  relative cell number: 66.8 ± 18
[15]
  relative cell number: 70.9 ± 24
sgRNA knockout: sgXBP1, 1 nM
  relative cell number: 74 ± 6.9
sgRNA knockout: sgXBP1, 10 nM
  relative cell number: 56.2 ± 1.9
sgRNA knockout: sgXBP1, 100 nM
  relative cell number: 71.2 ± 14
[16]
  relative cell number: 75.3 ± 2.5

## CC1(C)CCC(c2ccc(Cl)cc2)=C(CN2CCN(c3ccc(C(=O)NS(=O)(=O)c4ccc(N[C@H](CCN5CCOCC5)CSc5ccccc5)c(S(=O)(=O)C(F)(F)F)c4)cc3)CC2)C1 [Navitoclax]
sgRNA knockout: sgATF3, 10 nM
  relative cell number: 103 ± 18
sgRNA knockout: sgATF3, 100 nM
  relative cell number: 144 ± 42
[1]
  relative cell number: 94.6 ± 1.1
[17]
  relative cell number: 79.6 ± 28
sgRNA knockout: sgATF4, 10 nM
  relative cell number: 105 ± 9.4
sgRNA knockout: sgATF4, 100 nM
  relative cell number: 110 ± 14
[2]
  relative cell number: 84.2 ± 9.7
[18]
  relative cell number: 70.52 ± 0.34
sgRNA knockout: sgATF6, 10 nM
  relative cell number: 93.3 ± 20
sgRNA knockout: sgATF6, 100 nM
  relative cell number: 111 ± 25
[3]
  relative cell number: 81.9 ± 4
[19]
  relative cell number: 63.4 ± 8.8
sgRNA knockout: sgATG7, 10 nM
  relative cell number: 102 ± 13
sgRNA knockout: sgATG7, 100 nM
  relative cell number: 110 ± 3.8
[4]
  relative cell number: 68.1 ± 22
[20]
  relative cell number: 68.3 ± 11
sgRNA knockout: sgERN1, 10 nM
  relative cell number: 91.3 ± 34
sgRNA knockout: sgERN1, 100 nM
  relative cell number: 106 ± 1.8
[5]
  relative cell number: 94.9 ± 27
[21]
  relative cell number: 76 ± 46
sgRNA knockout: sgHSF1, 10 nM
  relative cell number: 106 ± 27
sgRNA knockout: sgHSF1, 100 nM
  relative cell number: 88.5 ± 9.7
[6]
  relative cell number: 79.6 ± 10
[22]
  relative cell number: 71.6 ± 13
sgRNA knockout: sgHSF2, 10 nM
  relative cell number: 97.4 ± 6.7
sgRNA knockout: sgHSF2, 100 nM
  relative cell number: 100 ± 6.5
[7]
  relative cell number: 84.7 ± 7
[23]
  relative cell number: 65.1 ± 12
sgRNA knockout: sgKEAP1, 10 nM
  relative cell number: 76.6 ± 26
[8]
  relative cell number: 103 ± 4.7
[9]
  relative cell number: 81.7 ± 17
[24]
  relative cell number: 72.8 ± 3.8
[10]
  relative cell number: 96.7 ± 16
[11]
  relative cell number: 110 ± 42
[12]
  relative cell number: 77.8 ± 6.9
[25]
  relative cell number: 61.7 ± 9.3
[13]
  relative cell number: 105 ± 3.5
[14]
  relative cell number: 88.7 ± 1.9
[15]
  relative cell number: 74.1 ± 3.1
[26]
  relative cell number: 57.7 ± 7.8
sgRNA knockout: sgXBP1, 10 nM
  relative cell number: 90.3 ± 12
sgRNA knockout: sgXBP1, 100 nM
  relative cell number: 116 ± 6.5
[16]
  relative cell number: 94 ± 14
[27]
  relative cell number: 67.8 ± 1.3

## C=C(c1ccc(C(=O)O)cc1)c1cc2c(cc1C)C(C)(C)CCC2(C)C [Bexarotene]
sgRNA knockout: sgATF3, 10 nM
  relative cell number: 109 ± 14
sgRNA knockout: sgATF3, 100 nM
  relative cell number: 88.05 ± 0.84
[1]
  relative cell number: 65.6 ± 22
[17]
  relative cell number: 87.826 ± 0.0049
sgRNA knockout: sgATF4, 10 nM
  relative cell number: 91 ± 6.5
sgRNA knockout: sgATF4, 100 nM
  relative cell number: 87.3 ± 7.1
[2]
  relative cell number: 79.8 ± 5.2
[18]
  relative cell number: 80.9 ± 13
sgRNA knockout: sgATF6, 10 nM
  relative cell number: 99.3 ± 14
sgRNA knockout: sgATF6, 100 nM
  relative cell number: 74.3 ± 5.2
[3]
  relative cell number: 80.3 ± 2.8
[19]
  relative cell number: 82.9 ± 4
sgRNA knockout: sgATG7, 10 nM
  relative cell number: 116 ± 33
sgRNA knockout: sgATG7, 100 nM
  relative cell number: 90.8 ± 2
[4]
  relative cell number: 75.4 ± 4.6
[20]
  relative cell number: 66.8 ± 6.6
sgRNA knockout: sgERN1, 10 nM
  relative cell number: 94.6 ± 6.5
sgRNA knockout: sgERN1, 100 nM
  relative cell number: 86.2 ± 14
[5]
  relative cell number: 99.1 ± 12
[21]
  relative cell number: 93.2 ± 5.7
sgRNA knockout: sgHSF1, 10 nM
  relative cell number: 116 ± 11
sgRNA knockout: sgHSF1, 100 nM
  relative cell number: 78.5 ± 3.5
[6]
  relative cell number: 84 ± 8.1
[22]
  relative cell number: 91 ± 2.6
sgRNA knockout: sgHSF2, 10 nM
  relative cell number: 89.33 ± 0.82
sgRNA knockout: sgHSF2, 100 nM
  relative cell number: 93.3 ± 21
[7]
  relative cell number: 101 ± 15
[23]
  relative cell number: 83.7 ± 7.7
sgRNA knockout: sgKEAP1, 10 nM
  relative cell number: 104 ± 3
[8]
  relative cell number: 78.2 ± 2.5
[9]
  relative cell number: 93.8 ± 10
[24]
  relative cell number: 79.6 ± 1.3
[10]
  relative cell number: 103 ± 5
[11]
  relative cell number: 105 ± 15
[12]
  relative cell number: 90.69 ± 0.53
[25]
  relative cell number: 102 ± 15
[13]
  relative cell number: 119 ± 7.1
[14]
  relative cell number: 73.8 ± 6.3
[15]
  relative cell number: 84.2 ± 6.5
[26]
  relative cell number: 98.1 ± 15
sgRNA knockout: sgXBP1, 10 nM
  relative cell number: 108 ± 2.7
sgRNA knockout: sgXBP1, 100 nM
  relative cell number: 96.3 ± 4.3
[16]
  relative cell number: 87.6 ± 14
[27]
  relative cell number: 88.4 ± 13
